The other results are listed elsewhere or left out.
Key:
Assay in all cases: log2 fold change, soluble protein after heating vs DMSO (PISA); higher = thermal stabilisation; K562 cells, 10 uM, 30 min; active = over 0.2 and 3.5 SD of the protein, either way, in both replicates (recomputed)
[1] = compound: C#Cc1cccc(Nc2ncnc3cc(OCCOC)c(OCCOC)cc23)c1 [erlotinib]
How it was run: (§1)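 K562 cells at 2×10^6 cells/mL were given 10 μM compound for 30 min. Aliquots then went through 3 min of heating across 48°C-58°C, were pooled, and were extracted in PBS with 0.5% NP-40 at 4°C, and the supernatant after 21,000xg for 90 min was quantified by TMTpro 16plex LC-MS/MS with channel sums equalised. Thermal stability relative to control samples, from duplicates, is given as log2 fold change.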

The chains behind the UniProt entries cited, without tags or fusion partners. Where a name states a change or a piece, a line headed by the entry shows the natural chain unless it says otherwise.
UniProt Q15121, whole entry, looked up: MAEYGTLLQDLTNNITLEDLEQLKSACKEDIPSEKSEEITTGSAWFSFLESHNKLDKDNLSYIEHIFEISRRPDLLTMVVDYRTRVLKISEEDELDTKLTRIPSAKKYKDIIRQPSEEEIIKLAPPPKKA
UniProt O75381, whole entry, looked up: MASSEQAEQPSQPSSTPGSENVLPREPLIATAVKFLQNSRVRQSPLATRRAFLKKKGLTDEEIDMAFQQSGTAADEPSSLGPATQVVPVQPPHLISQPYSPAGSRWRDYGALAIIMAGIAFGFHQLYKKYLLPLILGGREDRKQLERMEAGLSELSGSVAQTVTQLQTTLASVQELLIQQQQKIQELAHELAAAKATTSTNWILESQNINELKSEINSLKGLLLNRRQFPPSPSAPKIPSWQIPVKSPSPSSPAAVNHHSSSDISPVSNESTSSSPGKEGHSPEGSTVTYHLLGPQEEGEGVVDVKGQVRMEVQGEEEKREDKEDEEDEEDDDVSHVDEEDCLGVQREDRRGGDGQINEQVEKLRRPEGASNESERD
UniProt Q99497, whole entry, looked up: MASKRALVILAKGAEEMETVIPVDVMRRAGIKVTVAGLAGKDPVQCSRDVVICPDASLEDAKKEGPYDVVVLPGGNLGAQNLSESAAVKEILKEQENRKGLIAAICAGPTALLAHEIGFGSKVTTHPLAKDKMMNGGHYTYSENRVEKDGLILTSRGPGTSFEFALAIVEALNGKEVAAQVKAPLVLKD
UniProt O96011, whole entry, looked up, stated change not applied: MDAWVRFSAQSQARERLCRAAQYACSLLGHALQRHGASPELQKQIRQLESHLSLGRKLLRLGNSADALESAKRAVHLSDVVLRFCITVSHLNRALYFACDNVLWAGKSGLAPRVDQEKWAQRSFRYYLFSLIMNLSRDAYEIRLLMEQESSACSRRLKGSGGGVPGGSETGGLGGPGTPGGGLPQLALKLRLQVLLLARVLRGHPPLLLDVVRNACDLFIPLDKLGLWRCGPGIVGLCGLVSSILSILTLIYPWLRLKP
UniProt Q9H4Z3: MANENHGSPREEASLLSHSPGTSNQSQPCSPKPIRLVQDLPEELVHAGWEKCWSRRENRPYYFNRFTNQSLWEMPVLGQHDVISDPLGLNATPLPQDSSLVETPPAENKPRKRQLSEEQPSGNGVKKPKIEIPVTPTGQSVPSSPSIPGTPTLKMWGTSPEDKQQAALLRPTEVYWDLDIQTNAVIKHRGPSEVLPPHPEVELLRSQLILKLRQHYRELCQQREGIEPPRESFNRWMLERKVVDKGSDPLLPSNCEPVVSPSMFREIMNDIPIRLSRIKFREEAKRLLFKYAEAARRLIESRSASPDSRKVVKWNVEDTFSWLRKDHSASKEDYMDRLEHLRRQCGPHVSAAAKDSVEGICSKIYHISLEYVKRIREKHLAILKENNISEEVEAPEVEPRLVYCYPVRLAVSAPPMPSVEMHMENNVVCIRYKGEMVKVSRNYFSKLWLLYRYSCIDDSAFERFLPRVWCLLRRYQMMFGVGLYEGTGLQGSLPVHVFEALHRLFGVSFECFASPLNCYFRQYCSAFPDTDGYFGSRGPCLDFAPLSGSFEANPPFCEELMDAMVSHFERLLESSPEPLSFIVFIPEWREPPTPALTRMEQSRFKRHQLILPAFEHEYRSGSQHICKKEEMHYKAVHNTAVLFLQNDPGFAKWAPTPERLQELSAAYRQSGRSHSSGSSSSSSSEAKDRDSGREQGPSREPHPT
UniProt P50479: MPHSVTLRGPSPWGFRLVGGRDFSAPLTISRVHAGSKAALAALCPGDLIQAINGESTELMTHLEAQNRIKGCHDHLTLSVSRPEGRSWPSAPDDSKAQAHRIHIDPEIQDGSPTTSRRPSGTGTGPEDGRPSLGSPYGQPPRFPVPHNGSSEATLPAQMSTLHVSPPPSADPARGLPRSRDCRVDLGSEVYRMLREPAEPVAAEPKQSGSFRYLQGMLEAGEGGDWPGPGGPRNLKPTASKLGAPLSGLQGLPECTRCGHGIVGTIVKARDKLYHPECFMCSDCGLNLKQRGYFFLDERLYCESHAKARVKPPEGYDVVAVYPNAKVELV
UniProt Q13177, whole entry, looked up: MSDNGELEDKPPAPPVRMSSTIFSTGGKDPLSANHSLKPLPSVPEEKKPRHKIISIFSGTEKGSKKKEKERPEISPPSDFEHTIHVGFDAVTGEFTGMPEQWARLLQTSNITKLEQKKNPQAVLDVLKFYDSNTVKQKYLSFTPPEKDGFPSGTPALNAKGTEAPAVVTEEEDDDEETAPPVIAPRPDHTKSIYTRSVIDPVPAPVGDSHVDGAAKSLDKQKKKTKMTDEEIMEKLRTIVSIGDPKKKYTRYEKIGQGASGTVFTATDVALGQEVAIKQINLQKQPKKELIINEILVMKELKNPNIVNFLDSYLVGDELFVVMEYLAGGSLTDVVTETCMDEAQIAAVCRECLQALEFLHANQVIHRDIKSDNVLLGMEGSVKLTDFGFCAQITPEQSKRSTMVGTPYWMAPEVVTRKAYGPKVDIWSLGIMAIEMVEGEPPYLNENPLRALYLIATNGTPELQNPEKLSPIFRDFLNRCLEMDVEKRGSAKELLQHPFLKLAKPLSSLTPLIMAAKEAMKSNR
UniProt Q96RD7, whole entry, looked up: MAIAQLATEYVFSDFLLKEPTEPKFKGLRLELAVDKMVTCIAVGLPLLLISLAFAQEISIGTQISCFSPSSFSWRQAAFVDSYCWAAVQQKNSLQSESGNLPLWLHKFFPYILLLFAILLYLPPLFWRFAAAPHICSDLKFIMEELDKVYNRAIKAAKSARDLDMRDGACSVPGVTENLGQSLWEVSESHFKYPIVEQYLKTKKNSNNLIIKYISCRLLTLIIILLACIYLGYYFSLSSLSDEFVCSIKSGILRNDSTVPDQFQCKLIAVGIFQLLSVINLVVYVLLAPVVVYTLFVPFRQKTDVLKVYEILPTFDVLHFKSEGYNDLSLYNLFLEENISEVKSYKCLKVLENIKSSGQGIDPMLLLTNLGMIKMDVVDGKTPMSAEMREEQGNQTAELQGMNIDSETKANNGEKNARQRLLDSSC
UniProt O15530: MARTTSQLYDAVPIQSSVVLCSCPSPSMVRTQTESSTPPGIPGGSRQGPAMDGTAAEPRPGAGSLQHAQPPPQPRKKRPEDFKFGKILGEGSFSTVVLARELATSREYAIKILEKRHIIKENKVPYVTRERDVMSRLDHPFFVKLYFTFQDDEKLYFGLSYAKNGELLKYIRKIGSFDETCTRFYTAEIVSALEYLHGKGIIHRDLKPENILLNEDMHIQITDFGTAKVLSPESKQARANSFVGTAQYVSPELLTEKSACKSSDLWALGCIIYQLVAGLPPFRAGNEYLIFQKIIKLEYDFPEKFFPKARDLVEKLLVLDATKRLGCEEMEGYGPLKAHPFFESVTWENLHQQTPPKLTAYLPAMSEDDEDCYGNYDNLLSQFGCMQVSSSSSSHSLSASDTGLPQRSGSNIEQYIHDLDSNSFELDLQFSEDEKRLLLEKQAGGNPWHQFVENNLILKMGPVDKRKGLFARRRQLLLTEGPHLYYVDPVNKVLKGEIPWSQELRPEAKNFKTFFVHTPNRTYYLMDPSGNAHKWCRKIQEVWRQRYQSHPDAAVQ
UniProt O14737: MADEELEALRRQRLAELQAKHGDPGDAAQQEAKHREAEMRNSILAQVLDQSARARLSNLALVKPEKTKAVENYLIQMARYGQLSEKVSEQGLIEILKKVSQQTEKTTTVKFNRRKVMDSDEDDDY
UniProt Q8NBP7, whole entry, looked up: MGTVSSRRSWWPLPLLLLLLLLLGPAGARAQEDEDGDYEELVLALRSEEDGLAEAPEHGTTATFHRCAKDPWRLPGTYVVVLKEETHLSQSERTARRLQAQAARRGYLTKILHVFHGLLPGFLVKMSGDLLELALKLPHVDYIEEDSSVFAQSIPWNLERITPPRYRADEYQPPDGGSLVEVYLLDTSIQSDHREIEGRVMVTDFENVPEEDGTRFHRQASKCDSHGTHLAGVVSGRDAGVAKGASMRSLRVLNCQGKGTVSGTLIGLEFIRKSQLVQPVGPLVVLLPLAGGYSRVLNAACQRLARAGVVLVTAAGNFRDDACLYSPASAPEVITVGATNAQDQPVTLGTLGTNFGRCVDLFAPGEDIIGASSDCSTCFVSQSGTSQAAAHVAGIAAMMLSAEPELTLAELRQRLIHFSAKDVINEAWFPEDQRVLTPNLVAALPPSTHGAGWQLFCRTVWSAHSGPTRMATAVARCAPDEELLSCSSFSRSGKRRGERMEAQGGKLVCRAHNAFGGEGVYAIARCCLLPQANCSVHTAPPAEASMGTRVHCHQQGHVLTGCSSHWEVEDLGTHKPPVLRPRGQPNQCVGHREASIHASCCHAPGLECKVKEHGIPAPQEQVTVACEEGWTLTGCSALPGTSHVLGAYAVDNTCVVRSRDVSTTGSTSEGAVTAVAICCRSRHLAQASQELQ
UniProt Q13442: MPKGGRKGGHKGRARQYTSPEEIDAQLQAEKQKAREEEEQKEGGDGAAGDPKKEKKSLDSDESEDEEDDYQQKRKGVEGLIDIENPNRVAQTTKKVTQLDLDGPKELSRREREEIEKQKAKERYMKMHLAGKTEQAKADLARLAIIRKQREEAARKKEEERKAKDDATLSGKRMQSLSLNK
UniProt Q9P0J1: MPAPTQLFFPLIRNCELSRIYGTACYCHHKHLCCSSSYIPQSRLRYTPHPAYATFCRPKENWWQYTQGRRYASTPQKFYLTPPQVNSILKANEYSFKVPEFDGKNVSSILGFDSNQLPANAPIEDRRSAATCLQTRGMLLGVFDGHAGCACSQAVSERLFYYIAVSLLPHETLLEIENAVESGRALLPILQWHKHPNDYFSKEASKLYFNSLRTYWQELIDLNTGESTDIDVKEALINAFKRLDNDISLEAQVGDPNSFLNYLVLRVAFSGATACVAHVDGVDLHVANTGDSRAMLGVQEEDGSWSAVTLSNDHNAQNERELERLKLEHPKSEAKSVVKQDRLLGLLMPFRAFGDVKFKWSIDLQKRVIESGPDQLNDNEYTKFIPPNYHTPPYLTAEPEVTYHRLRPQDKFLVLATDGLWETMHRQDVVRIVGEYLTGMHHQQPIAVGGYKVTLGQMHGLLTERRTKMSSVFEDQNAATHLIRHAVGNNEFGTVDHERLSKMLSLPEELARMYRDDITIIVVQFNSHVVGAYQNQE
UniProt O94913, whole entry, looked up: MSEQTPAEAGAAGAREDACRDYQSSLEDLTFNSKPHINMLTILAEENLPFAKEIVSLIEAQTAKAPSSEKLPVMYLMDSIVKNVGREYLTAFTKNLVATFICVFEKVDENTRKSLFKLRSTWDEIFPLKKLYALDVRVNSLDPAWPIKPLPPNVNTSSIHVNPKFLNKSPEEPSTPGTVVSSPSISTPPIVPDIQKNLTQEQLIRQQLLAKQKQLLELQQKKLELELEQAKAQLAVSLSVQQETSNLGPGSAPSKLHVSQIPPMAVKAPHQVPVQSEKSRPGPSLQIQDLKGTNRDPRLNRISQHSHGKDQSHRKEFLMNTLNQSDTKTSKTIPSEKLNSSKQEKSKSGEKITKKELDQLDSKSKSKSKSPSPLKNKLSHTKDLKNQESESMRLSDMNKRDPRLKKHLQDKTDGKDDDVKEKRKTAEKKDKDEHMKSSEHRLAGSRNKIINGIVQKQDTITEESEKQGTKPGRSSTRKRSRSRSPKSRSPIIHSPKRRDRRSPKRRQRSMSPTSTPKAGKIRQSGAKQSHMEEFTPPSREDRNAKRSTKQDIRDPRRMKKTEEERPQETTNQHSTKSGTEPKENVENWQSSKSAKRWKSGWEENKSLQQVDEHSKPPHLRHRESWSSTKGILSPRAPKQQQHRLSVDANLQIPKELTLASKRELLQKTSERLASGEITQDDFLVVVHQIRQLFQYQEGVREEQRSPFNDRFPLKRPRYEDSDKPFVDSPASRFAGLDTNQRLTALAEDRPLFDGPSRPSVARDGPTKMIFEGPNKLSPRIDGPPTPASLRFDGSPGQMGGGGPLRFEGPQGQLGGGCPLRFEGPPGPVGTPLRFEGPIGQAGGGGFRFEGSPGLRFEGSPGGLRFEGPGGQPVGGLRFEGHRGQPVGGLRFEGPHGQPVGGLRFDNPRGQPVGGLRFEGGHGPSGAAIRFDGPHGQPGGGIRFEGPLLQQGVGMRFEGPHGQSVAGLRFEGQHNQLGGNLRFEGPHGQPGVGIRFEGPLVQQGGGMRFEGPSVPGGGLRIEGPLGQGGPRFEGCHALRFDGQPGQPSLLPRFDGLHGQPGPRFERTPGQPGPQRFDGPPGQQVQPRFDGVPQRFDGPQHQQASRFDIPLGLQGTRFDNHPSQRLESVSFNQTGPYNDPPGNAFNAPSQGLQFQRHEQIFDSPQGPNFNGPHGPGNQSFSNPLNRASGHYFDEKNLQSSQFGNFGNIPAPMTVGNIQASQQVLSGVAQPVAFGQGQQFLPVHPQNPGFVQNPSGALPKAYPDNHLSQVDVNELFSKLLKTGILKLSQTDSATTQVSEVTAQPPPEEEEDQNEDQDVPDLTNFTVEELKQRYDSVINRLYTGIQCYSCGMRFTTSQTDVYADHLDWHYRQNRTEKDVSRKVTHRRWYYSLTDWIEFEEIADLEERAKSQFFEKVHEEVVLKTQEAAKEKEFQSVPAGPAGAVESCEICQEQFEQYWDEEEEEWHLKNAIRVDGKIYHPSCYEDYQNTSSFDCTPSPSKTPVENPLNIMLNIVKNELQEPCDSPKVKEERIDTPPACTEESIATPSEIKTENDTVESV

[2] = compound: C/C(=N\NC(=O)C1=CC(=CC=C1)S(=O)(=O)N2CCOCC2)/C3=C(C=CC(=C3)Cl)O
How it was run: as §1

[3] = compound: C1=CC(=C(C=C1Cl)C2=NC3=NC=CN=C3C(=N2)NC4=CC=NC=C4)F
How it was run: as §1

[4] = compound: C1=CC(=CC=C1C2=NC3=C(N2)C=C(C=C3)C(=O)N)OC4=CC=C(C=C4)Cl
How it was run: as §1

[5] = compound: C1=CC2=C(C=CC(=C2)/C=C\3/C(=O)NC(=NCC4=CC=CS4)S3)N=C1
How it was run: as §1

[6] = compound: C1=CC2=NC=CN=C2C=C1/C=C/3\C(=O)NC(=O)S3
How it was run: as §1

[7] = compound: C1=CC=C(C=C1)C2=NC(=C(N2)C3=CC=NC=C3)C4=CC(=C(C=C4)Cl)O
How it was run: as §1

[8] = compound: C1=CC=C2C(=C1)C3=NNC4=CC=CC(=C43)C2=O
How it was run: as §1

[9] = compound: C1CCN(C1)C(=O)NC2=CC=CC(=C2)NC3=NC=C(C(=N3)NCCC4=CN=CN4)Br
How it was run: as §1

[10] = compound: C1CN(CCC1(CC2=CC=C(C=C2)Cl)N)C3=NC=NC4=C3C=CN4
How it was run: as §1

Measured: log2 fold change

PDIK1L (UniProt Q8N165)
inactive: [1] -0.075 | [2] 0.083 | [3] -0.031 | [4] -0.052 | [5] 0.034 | [6] 0.115 | [7] -0.034 | [8] 0.197 | [9] 0.023 | [10] -0.007

PAK1IP1 (UniProt Q9NWT1)
inactive: [1] -0.218 | [2] -0.218 | [3] -0.56 | [4] 0.104 | [5] -0.094 | [6] 0.033 | [7] -0.073 | [8] 0.002 | [9] 0.126 | [10] -0.212

PEA15 isoform 2 (UniProt Q15121)
inactive: [1] 0.001 | [2] 0.042 | [3] 0.056 | [4] 0.026 | [5] -0.014 | [6] 0.055 | [7] -0.006 | [8] 0.072 | [9] 0.016 | [10] -0.064

PDSS2 (UniProt Q86YH6)
inactive: [1] 0.029 | [2] -0.011 | [3] -0.04 | [4] 0.012 | [5] 0.053 | [6] -0.025 | [7] 0.026 | [8] -0.006 | [9] 0.061 | [10] 0.073

PEX14 (UniProt O75381)
inactive: [1] -0.013 | [2] 0 | [3] 0.112 | [4] 0.019 | [5] -0.002 | [6] 0.051 | [7] 0.04 | [8] 0.033 | [9] 0.009 | [10] 0.025

PCBD1 (UniProt P61457)
inactive: [1] 0.034 | [2] 0.058 | [3] -0.001 | [4] 0.002 | [5] 0.104 | [6] 0.002 | [7] 0.021 | [8] -0.021 | [9] -0.029 | [10] 0.018

PES1 (UniProt O00541)
inactive: [1] 0.086 | [2] -0.018 | [3] -0.195 | [4] 0.113 | [5] -0.09 | [6] 0.02 | [7] -0.054 | [8] -0.13 | [9] -0.071 | [10] -0.173

PAGE4 (UniProt O60829)
inactive: [1] 0.048 | [2] 0.038 | [3] 0.408 | [4] 0.048 | [5] -0.075 | [6] -0.154 | [7] 0.114 | [8] 0.031 | [9] -0.088 | [10] 0.15

PCGF2 (UniProt P35227)
inactive: [1] 0.11 | [2] 0.037 | [3] 0.001 | [4] -0.013 | [5] 0.177 | [6] -0.023 | [7] 0.053 | [8] -0.002 | [9] -0.057 | [10] -0.061

2 records picked at random from those above:
PAGE4 (UniProt O60829)
inactive: [1] 0.048 | [2] 0.038 | [3] 0.408 | [4] 0.048 | [5] -0.075 | [6] -0.154 | [7] 0.114 | [8] 0.031 | [9] -0.088 | [10] 0.15

PCBD1 (UniProt P61457)
inactive: [1] 0.034 | [2] 0.058 | [3] -0.001 | [4] 0.002 | [5] 0.104 | [6] 0.002 | [7] 0.021 | [8] -0.021 | [9] -0.029 | [10] 0.018

Later entries.

PARK7 (UniProt Q99497)
inactive: [1] 0.013 | [2] 0.072 | [3] 0.072 | [4] -0.02 | [5] -0.06 | [6] -0.038 | [7] 0.136 | [8] 0.041 | [9] -0.059 | [10] 0.055

PEX11B (UniProt O96011)
inactive: [1] 0.016 | [2] 0.058 | [3] 0.162 | [4] -0.001 | [5] 0.056 | [6] 0.087 | [7] 0.142 | [8] -0.012 | [9] -0.097 | [10] 0.041

PDHB (UniProt P11177)
inactive: [1] -0.093 | [2] -0.077 | [3] -0.091 | [4] 0.075 | [5] 0.026 | [6] -0.047 | [7] 0.004 | [8] 0.127 | [9] -0.075 | [10] -0.155

PDIA4 (UniProt P13667)
inactive: [1] -0.057 | [2] -0.03 | [3] 0.021 | [4] 0.005 | [5] -0.043 | [6] 0.011 | [7] 0.032 | [8] 0.025 | [9] 0.01 | [10] -0.011

PASK (UniProt Q96RG2)
inactive: [1] 0.045 | [2] 0.136 | [3] 0.046 | [4] -0.006 | [5] 0.022 | [6] 0.059 | [7] -0.033 | [8] 0.024 | [9] 0.055 | [10] 0.034

PCIF1 (UniProt Q9H4Z3)
inactive: [1] 0.171 | [2] 0.251 | [3] 0.071 | [4] 0.008 | [5] 0.09 | [6] 0.027 | [7] -0.08 | [8] 0.036 | [9] -0.168 | [10] -0.035

PDLIM4 (UniProt P50479)
inactive: [1] 0.06 | [2] -0.001 | [3] 0.025 | [4] -0.018 | [5] 0.068 | [6] 0.046 | [7] -0.022 | [8] -0.037 | [9] -0.055 | [10] 0.049

PCM1 isoform 5 (UniProt Q15154)
inactive: [1] -0.063 | [2] -0.113 | [3] -0.226 | [4] 0.016 | [5] -0.086 | [6] 0.028 | [7] -0.026 | [8] -0.078 | [9] -0.04 | [10] -0.024

PAK2 (UniProt Q13177)
inactive: [1] -0.024 | [2] 0.018 | [3] 0.037 | [4] -0.012 | [5] 0.01 | [6] -0.002 | [7] 0.003 | [8] -0.003 | [9] 0.005 | [10] 0.013

PARG (UniProt Q86W56)
inactive: [1] 0.063 | [2] 0.067 | [3] 0.034 | [4] -0.015 | [5] 0.063 | [6] 0.059 | [7] 0.043 | [8] 0.063 | [9] -0.079 | [10] -0.071

PDCD11 (UniProt Q14690)
inactive: [1] 0.172 | [2] -0.07 | [3] 0.144 | [4] 0.055 | [5] 0.168 | [6] 0.048 | [7] -0.162 | [8] 0.033 | [9] 0.007 | [10] 0.014

PANX1 (UniProt Q96RD7)
inactive: [1] -0.001 | [2] -0.013 | [3] 0.032 | [4] 0.032 | [5] 0.029 | [6] 0.014 | [7] -0.016 | [8] -0.018 | [9] -0.012 | [10] 0.094

PDPK1 (UniProt O15530)
inactive: [1] 0.02 | [2] 0.083 | [3] 0.026 | [4] 0.064 | [5] 0.068 | [6] -0.029 | [7] 0.045 | [8] 0.007 | [9] 0.087 | [10] 0.028

PBLD (UniProt P30039)
inactive: [1] 0.092 | [2] 0.08 | [3] 0.165 | [4] -0.042 | [5] 0.122 | [6] -0.132 | [7] 0.018 | [8] 0.025 | [9] -0.016 | [10] 0.087

PDCD6IP (UniProt Q8WUM4)
inactive: [1] 0.162 | [2] 0.167 | [3] 0.045 | [4] -0.044 | [5] 0.122 | [6] 0.014 | [7] 0.031 | [8] 0.043 | [9] -0.095 | [10] -0.122

PDCD5 (UniProt O14737)
inactive: [1] -0.003 | [2] -0.003 | [3] 0.125 | [4] -0.015 | [5] -0.004 | [6] 0.074 | [7] -0.016 | [8] -0.001 | [9] 0.003 | [10] 0.004

PCSK9 (UniProt Q8NBP7)
inactive: [1] -0.033 | [2] -0.02 | [3] -0.054 | [4] -0.047 | [5] 0.013 | [6] 0.037 | [7] 0.028 | [8] -0.003 | [9] -0.027 | [10] 0.032

PDHA1 isoform 4 (UniProt P08559)
inactive: [1] -0.106 | [2] -0.124 | [3] -0.11 | [4] 0.058 | [5] -0.036 | [6] -0.012 | [7] -0.052 | [8] 0.111 | [9] -0.05 | [10] -0.171

PBDC1 (UniProt Q9BVG4)
inactive: [1] -0.027 | [2] 0.08 | [3] 0.036 | [4] -0.024 | [5] 0.068 | [6] -0.001 | [7] -0.005 | [8] -0.032 | [9] -0.044 | [10] -0.084

PDAP1 (UniProt Q13442)
inactive: [1] 0.012 | [2] -0.073 | [3] 0.047 | [4] 0.032 | [5] 0.015 | [6] 0.018 | [7] 0.024 | [8] -0.001 | [9] 0.054 | [10] 0.026

PDP1 isoform 2 (UniProt Q9P0J1)
inactive: [6] -0.261

PCF11 (UniProt O94913)
inactive: [2] 0.04 | [5] -0.082 | [6] 0.111 | [7] -0.191 | [8] 0.083

From the supplement of paper PMC10849652
